Laboratory results as given in the supplement of paper PMC6078165.
The reference is the same well before dosing, and untreated signal decays as well.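 Fibroblast labels denote human fibroblasts, mainly primary ones from uterus (C12385, HUF), lung (H6013), bone (Hs27A), adrenal (HADF) and skin (WS1), plus mammary HMF and breast cancer-associated Hs343T. Cancer cells are basal-like or mesenchymal-like triple-negative breast cancer lines. A hit is a response shift exceeding 3x replicate standard deviation. The tissue of the other fibroblasts is not given here.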

System: MDAMB468
Assay: relative JC-1 red fluorescence (viability) vs pre-drug, coculture with fibroblast (fraction); higher = more viable cancer cells
Conditions: 0.1 µM
Protocol: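 JC-1 labelled TNBC cells cocultured 1:1 (1,500 cells each) with CellTrace Violet stained primary or stromal fibroblasts in 384-well plates in FluoroBrite medium, treated with one of 42 anticancer drugs at 0.1, 1, 10 or 100 uM. JC-1 red fluorescence (mitochondrial integrity in cancer cells only) was read by plate reader every 8 h for 72 h. Values are normalised to each well's pre-drug value. The stock of one drug was tenfold lower, so its dose labels may be too high.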

CC(C)C[C@H](NC(=O)[C@@H](COC(C)(C)C)NC(=O)[C@H](Cc1ccc(O)cc1)NC(=O)[C@H](CO)NC(=O)[C@H](Cc1c[nH]c2ccccc12)NC(=O)[C@H](Cc1cnc[nH]1)NC(=O)[C@@H]1CCC(=O)N1)C(=O)N[C@@H](CCCNC(=N)N)C(=O)N1CCC[C@H]1C(=O)NNC(N)=O [Goserelin]
relative JC-1 red fluorescence
Conditions | 8 h | 16 h | 24 h | 32 h | 40 h | 48 h | 56 h | 64 h | 72 h
coculture fibroblast: C12385 | 0.8564 | 0.7823 | 0.7379 | 0.67 | 0.62 | 0.607 | 0.566 | 0.536 | 0.522
coculture fibroblast: H6013 | 0.8443 | 0.852 | 0.808 | 0.796 | 0.763 | 0.771 | 0.745 | 0.733 | 0.681
coculture fibroblast: H6019 | 0.816 | 0.791 | 0.76 | 0.71 | 0.67 | 0.647 | 0.601 | 0.566 | 0.541
coculture fibroblast: H6076 | 0.92 | 0.829 | 0.892 | 0.878 | 0.81 | 0.7945 | 0.745 | 0.721 | 0.749
coculture fibroblast: H6231 | 0.8357 | 0.901 | 0.806 | 0.818 | 0.764 | 0.734 | 0.692 | 0.667 | 0.654
coculture fibroblast: HADF | 0.886 | 0.8276 | 0.789 | 0.779 | 0.727 | 0.719 | 0.673 | 0.666 | 0.632
coculture fibroblast: HCFa | 0.8353 | 0.818 | 0.7662 | 0.739 | 0.672 | 0.663 | 0.6138 | 0.581 | 0.5452
coculture fibroblast: HCPF | 0.8819 | 0.946 | 0.88 | 0.871 | 0.788 | 0.7539 | 0.692 | 0.6722 | 0.652
coculture fibroblast: HHSteC | 0.872 | 0.821 | 0.771 | 0.728 | 0.676 | 0.676 | 0.608 | 0.579 | 0.536
coculture fibroblast: HMF | 0.831 | 0.822 | 0.886 | 0.841 | 0.767 | 0.744 | 0.686 | 0.668 | 0.644
coculture fibroblast: HPFa | 0.9512 | 0.882 | 0.842 | 0.799 | 0.76 | 0.75 | 0.68 | 0.651 | 0.578
coculture fibroblast: HUF | 0.9066 | 0.8152 | 0.757 | 0.702 | 0.652 | 0.627 | 0.579 | 0.552 | 0.535
coculture fibroblast: Hs5 | 0.848 | 0.949 | 0.888 | 0.85 | 0.76974 | 0.734 | 0.7 | 0.662 | 0.67
coculture fibroblast: Hs27A | 0.8672 | 0.815 | 0.756 | 0.753 | 0.686 | 0.674 | 0.627 | 0.605 | 0.566
coculture fibroblast: Hs343T | 0.895 | 0.9814 | 0.9054 | 0.875 | 0.801 | 0.756 | 0.693 | 0.67 | 0.637
coculture fibroblast: WS1 | 0.822 | 0.7729 | 0.727 | 0.6535 | 0.603 | 0.57 | 0.54 | 0.517 | 0.502
